# Data published in PubChem BioAssay AID1487 (National Center for Advancing Translational Sciences (NCATS), 2009).
# This is one part of the list. Shown are side measurements of this screen, not its main read-out; they come without a call. Most of these compounds were active or inconclusive in the main read-out, so they are no random draw. The note in brackets gives the kind of curve behind each potency; many fits are weak.
# Assay: qHTS Assay for Modulators of Lamin A Splicing
# Conditions: HeLa LMNA splicing GFP/RFP minigene ratio, 48 h
# In short: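 Read-out is the ratio of GFP to DsRed2 object intensity, acquired by 488 nm laser-scanning cytometry on HeLa lamin A-EGFP minigene reporter cells. Compound incubation 48 hrs at 37 °C in Opti-MEM with 2% FBS; DMSO 0.5% final.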
# [1] = measured here: GFP splicing reporter channel
# [2] = measured here: RFP viability control channel
smiles,measurement,setting,value
Cc1ccc(NC(=O)c2cc(N3C(=O)C=CC3=O)ccc2N2CCOCC2)cc1,AC50,[1],"12.6 µM [falling, partial curve]"
same,AC50,[2],"10 µM [falling, partial curve]"
NS(=O)(=O)c1cc2c(cc1C(F)(F)F)N[C@H](Cc1ccccc1)NS2(=O)=O,AC50,[2],"14.1 µM [rising, single point]"
CCCNC(=O)Cn1c(=O)/c(=C\c2ccc(-c3ccc([N+](=O)[O-])cc3)o2)s/c1=C\C(=O)C(C)(C)C,AC50,[1],"0.398 µM [falling, full curve, poor fit]"
same,AC50,[2],"0.398 µM [falling, full curve, poor fit]"
CCCSc1nc2cc(C)c(C)cc2n1CC(C)O (centres undefined),AC50,[1],"1.26 µM [falling, full curve, poor fit]"
O=C(NCc1ccco1)c1cc([N+](=O)[O-])ccc1Cl,AC50,[1],"1.58 µM [rising, partial curve]"
O=c1[nH]cnc2c1c(-c1ccccc1)cn2-c1ccc(Br)cc1,AC50,[2],"35.5 µM [rising, single point]"
CCOc1ccc(CC2c3cc(OCC)c(OCC)cc3CCN2C(=O)c2cc(OC)c(OC)c(OC)c2)cc1OCC (centres undefined),AC50,[1],"14.1 µM [rising, single point]"
same,AC50,[2],"22.4 µM [rising, single point]"
COC(=O)c1sccc1NC(=S)N1CCN(c2cc(C)ccc2C)CC1,AC50,[1],"15.8 µM [rising, single point]"
same,AC50,[2],"35.5 µM [rising, single point]"
Cc1ccc(NC(=O)Cn2c(=O)ccc3cc(S(=O)(=O)N4CCC(C)CC4)ccc32)c(C)c1,AC50,[1],"35.5 µM [falling, single point]"
same,AC50,[2],"35.5 µM [falling, single point]"
COCCCNC(=O)C1CCC(CNS(=O)(=O)c2ccc(OC)cc2)CC1 (centres undefined),AC50,[2],"0.178 µM [falling, full curve]"
CCNC(=S)NN=C1c2ccccc2-c2ccccc21,AC50,[1],"17.8 µM [falling, partial curve]"
same,AC50,[2],"2.82 µM [falling, single point]"
Cc1cc(C(=O)COC(=O)c2ccccc2O)c(C)n1Cc1cccs1,AC50,[2],"31.6 µM [rising, single point]"
COc1cc(NC(=O)COC(=O)/C=C/c2ccc(Cl)cc2Cl)cc(OC)c1,AC50,[1],"35.5 µM [rising, single point]"
CC(C)c1nc2oc3c(NCC4CCCO4)ncnc3c2c2c1CCC2 (centres undefined),AC50,[2],"10 µM [rising, single point]"
COc1cccc(CNC(=O)C2CCN(Cc3cc4ccccc4n3Cc3ccc(C)cc3)CC2)c1,AC50,[2],"7.94 µM [falling, partial curve]"
COc1ccc(CN=C2Nc3ccccc3CS2)cc1,AC50,[1],"14.1 µM [rising, single point]"
same,AC50,[2],"35.5 µM [rising, single point]"
COc1ccc(-c2c(-c3ccc(O)cc3O)n[nH]c2C)cc1OC,AC50,[2],"31.6 µM [rising, single point]"
CCN(CC)S(=O)(=O)c1cc(C(=O)OCC(=O)c2ccc3c(c2)NC(=O)CO3)ccc1F,AC50,[1],"10 µM [rising, partial curve]"
same,AC50,[2],"20 µM [rising, partial curve]"
O=C(OCn1ncc(Cl)c(Cl)c1=O)c1ccc(C(F)(F)F)cc1,AC50,[1],"35.5 µM [falling, single point]"
same,AC50,[2],"22.4 µM [falling, single point]"
COc1cnc(SCc2ccc(Cl)c(Cl)c2)nc1Cl,AC50,[1],"15.8 µM [falling, single point]"
same,AC50,[2],"17.8 µM [falling, single point]"
O=C(c1c[nH]c2ccccc2c1=O)N1CCCCCC1,AC50,[1],"0.02 µM [rising, full curve, poor fit]"
O=[N+]([O-])c1ccc2nc(-c3ccccc3)n(OCc3ccc(Cl)cc3)c2c1,AC50,[2],"11.2 µM [falling, partial curve]"
Cc1cnccc1CN(C)Cc1cn(C)nc1-c1cccc(Cl)c1,AC50,[1],"14.1 µM [falling, single point]"
same,AC50,[2],"35.5 µM [falling, single point]"
Cc1nc2ccc(NC(=O)COc3ccccc3C)cc2s1,AC50,[1],"35.5 µM [falling, single point]"
same,AC50,[2],"1.12 µM [falling, partial curve, poor fit]"
O=C(c1ccc(F)cc1)C1CCN(C(=O)NC2CCCCC2)CC1,AC50,[1],"0.0398 µM [rising, full curve, poor fit]"
O=c1c2ccccc2nnn1CSc1nc2sc3c(c2c(=O)n1CC1CCCO1)CCC3 (centres undefined),AC50,[1],"11.2 µM [rising, single point]"
Cc1cc(C)c(S(=O)(=O)N2CCCOC2CNC(=O)C(=O)NCCC2=CCCCC2)c(C)c1 (centres undefined),AC50,[1],"0.0158 µM [falling, full curve, poor fit]"
CC(C)(C)C1CCc2c(sc(NC(=O)c3cccs3)c2C(=O)N2CCCCC2)C1 (centres undefined),AC50,[1],"22.4 µM [rising, single point]"
same,AC50,[2],"12.6 µM [rising, single point]"
Cc1ccc(C)c(CNC(=O)c2ccc3c(c2)nc2n3CCC(C)C2)c1 (centres undefined),AC50,[2],"0.562 µM [falling, partial curve]"
Cc1cc(C)c2nc(N3CCC(C(=O)NCCCN4CCCCC4)CC3)sc2c1,AC50,[2],"7.08 µM [falling, partial curve]"
O=C(/C=C/c1ccccc1)NC(=S)Nc1ccc2c3c(cccc13)CC2,AC50,[2],"22.4 µM [rising, partial curve]"
COc1ccccc1C1=NC(c2ccc(F)cc2)N=C1C (centres undefined),AC50,[2],"1.78 µM [falling, partial curve, poor fit]"
Cc1ccc(NC(=O)CSc2nc3c(c(=O)[nH]2)CN(Cc2ccc(F)cc2)CC3)cc1C,AC50,[1],"0.0794 µM [falling, full curve, poor fit]"
CC1=CC2=NC(=O)/C(=C\c3cccn3CCOc3ccc(C)c(C)c3)C(=N)N2O1,AC50,[2],"0.01 µM [rising, full curve, poor fit]"
O=C(/C=C/c1ccc(Cl)cc1)N1CCN(c2c(Cl)cccc2[N+](=O)[O-])CC1,AC50,[1],"17.8 µM [rising, single point]"
same,AC50,[2],"25.1 µM [rising, single point]"

# Exported as tab-separated lines: part of the list above.
smiles	measurement	setting	value
COc1ccccc1C1=NC(c2ccc(F)cc2)N=C1C (centres undefined)	AC50	[2]	1.78 µM [falling, partial curve, poor fit]
Cc1ccc(NC(=O)CSc2nc3c(c(=O)[nH]2)CN(Cc2ccc(F)cc2)CC3)cc1C	AC50	[1]	0.0794 µM [falling, full curve, poor fit]
